The series has as its system Cel-cest-1.2 mutants. Nature of the series: Comparative metabolomics (HPLC-HRMS) of Cel-cest-1.2 mutants versus wildtype C. elegans (N2). The conditions noted are these: abundance of the metabolite in Cel-cest-1.2 mutants compared to C. elegans wildtype (N2).
Take `Nc1ccccc1C(=O)OC[C@H]1O[C@@H](n2ccc3ccccc32)[C@H](OC(=O)c2ccc(O)cc2)[C@@H](CP(=O)(O)O)[C@@H]1O` [iglu#75]: the “Cel-cest-1.2 fold over WT (N2), average of 4 repeats” value (“Cel-cest-1.2 fold over WT (N2)” below) turned out to be 0.01522. The result for `CCC(=O)OC1C(OP(=O)(O)O)C(O)C(COC(=O)c2cccnc2)OC1n1ccc2ccccc21` (stereo not shown) [iglu#25] reads 0.004462.

Consider `O=C(Cc1ccccc1)O[C@@H]1[C@@H](OP(=O)(O)O)[C@H](O)[C@@H](CO)O[C@H]1n1ccc2ccccc21` [iglu#16], for which the “Cel-cest-1.2 fold over WT (N2)” value is 0.000533. With `C/C=C(\C)C(O)OC1C(CC(=O)c2ccccc2N)OC(COC(=O)C(N)Cc2ccccc2)C(O)C1OP(=O)(O)O` (stereo not shown) [angl#34], the “Cel-cest-1.2 fold over WT (N2)” value is on record as 0.0007289.

Turning to `CCCC(=O)OC[C@H]1O[C@@H](n2ccc3ccccc32)[C@H](OC(=O)c2ccccc2N)[C@@H](OP(=O)(O)O)[C@@H]1O` [iglu#84], the “Cel-cest-1.2 fold over WT (N2)” value was found to be 0.001499.

With `C/C=C(\C)C(=O)OC[C@H]1O[C@@H](OC(=O)c2ccccc2)[C@H](O)[C@@H](OP(=O)(O)O)[C@@H]1O` [bzglu#201], the “Cel-cest-1.2 fold over WT (N2)” value is recorded as 0.001807. The value for `CCC/C=C/C(=O)OCC1OC(OC(=O)c2cccnc2)C(OC(=O)c2cccnc2)C(OP(=O)(O)O)C1O` (stereo not shown) [nglu#8] was 0.004243; that for `O=C(OC[C@H]1O[C@@H](n2ccc3ccccc32)[C@H](OC(=O)c2ccccc2)[C@@H](OP(=O)(O)O)[C@@H]1O)c1cccnc1` [iglu#52] was 0.00007449. With `CC(C)CC(=O)OC1C(Oc2ccc(CCN)cc2)OC(COC(=O)c2ccc[nH]2)C(O)C1OP(=O)(O)O` (stereo not shown) [tyglu#22], the “Cel-cest-1.2 fold over WT (N2)” value is listed as 0.003217. The value for `C/C=C(\C)C(=O)OCC1OC(OC(=O)c2cccnc2)C(OC(=O)c2ccccc2)C(OP(=O)(O)O)C1O` (stereo not shown) [nglu#3] was 0.003827; that for `O=C(C[C@@H]1O[C@H](COC(=O)c2ccc[nH]2)[C@@H](O)[C@H](OP(=O)(O)O)[C@H]1OC(=O)c1ccc[nH]1)c1ccccc1` [bzglu#9] was 0.0006298; that for `Nc1ccccc1C(=O)OCC1OC(n2ccc3ccccc32)C(OC(=O)c2ccccc2)C(OP(=O)(O)O)C1O` (stereo not shown) [iglu#65] was 0.008342. For `CC(C)CC(=O)OC[C@H]1O[C@@H](Oc2ccc(CCN)cc2)[C@H](OC(=O)c2ccccc2N)[C@@H](OP(=O)(O)O)[C@@H]1O` [tyglu#52], the “Cel-cest-1.2 fold over WT (N2)” value is reported as 0.009508.

On to `NCCc1ccc(O[C@@H]2O[C@H](COC(=O)c3ccc(O)cc3)[C@@H](O)[C@H](OP(=O)(O)O)[C@H]2OC(=O)c2ccccc2N)cc1` [tyglu#35], for which the “Cel-cest-1.2 fold over WT (N2)” value amounted to 0.001744.

Consider `NCCc1ccc(O[C@@H]2O[C@H](COC(=O)c3ccccc3N)[C@@H](O)[C@H](OP(=O)(O)O)[C@H]2OC(=O)c2ccccc2)cc1` [tyglu#16], for which the “Cel-cest-1.2 fold over WT (N2)” value was 4.851E−05. The value for `C/C=C(\C)C(=O)O[C@@H]1[C@@H](OP(=O)(O)O)[C@H](O)[C@@H](COC(=O)c2cccnc2)O[C@H]1n1ccc2ccccc21` [iglu#31] was 0.001403; that for `CCCCCCCCCCCC(=O)O[C@H]1[C@H](OC(=O)c2ccccc2N)O[C@H](COC(=O)c2ccccc2N)[C@@H](O)[C@@H]1OP(=O)(O)O` [angl#41] was 0.002887; that for `O=C(OC[C@H]1O[C@@H](n2ccc3ccccc32)[C@H](OC(=O)c2ccccc2)[C@@H](OP(=O)(O)O)[C@@H]1O)c1ccccc1` [iglu#50] was 0.00005754.

As for `Nc1ccccc1C(=O)OC[C@H]1O[C@@H](OC(=O)c2ccccc2N)[C@H](OC(=O)Cc2ccccc2)[C@@H](OP(=O)(O)O)[C@@H]1O` [angl#56], the “Cel-cest-1.2 fold over WT (N2)” value came out at 0.01078. Turning to `O=C(OC[C@H]1O[C@@H](n2ccc3ccccc32)[C@H](OC(=O)c2ccc[nH]2)[C@@H](OP(=O)(O)O)[C@@H]1O)c1ccccc1` [iglu#38], the “Cel-cest-1.2 fold over WT (N2)” value was 0.0000986. As to `Nc1ccccc1C(=O)O[C@@H]1O[C@H](COC(=O)c2cccnc2)[C@@H](O)[C@H](OP(=O)(O)O)[C@H]1O` [angl#10], the “Cel-cest-1.2 fold over WT (N2)” value was found to be 0.0007813.

In the case of `O=C(OC[C@H]1O[C@@H](n2ccc3cc(O)ccc32)[C@H](OC(=O)c2cccnc2)[C@@H](OP(=O)(O)O)[C@@H]1O)c1ccccc1` [higlu#4], the “Cel-cest-1.2 fold over WT (N2)” value is given as 0.004004. The result for `CC(C)CC(=O)OC[C@H]1O[C@@H](n2ccc3ccccc32)[C@H](OC(=O)c2ccccc2)[C@@H](OP(=O)(O)O)[C@@H]1O` [iglu#32] reads 0.001437; that for `C/C=C(\C)C(=O)OC1C(OP(=O)(O)O)C(O)C(COC(=O)c2ccccc2)OC1n1ccc2ccccc21` (stereo not shown) [iglu#28], 0.00009358. As to `Nc1ccccc1C(=O)O[C@@H]1O[C@H](COC(=O)c2ccccc2)[C@@H](O)[C@H](OP(=O)(O)O)[C@H]1OC(=O)c1ccccc1N` [angl#32], the “Cel-cest-1.2 fold over WT (N2)” value stood at 0.0004297. The value for `Cn1c(N)nc2c(ncn2C2OC(CO)C(O)C(OP(=O)(O)O)C2OC(=O)c2ccccc2)c1=O` (stereo not shown) [mgglu#201] was 0.003821; that for `Nc1ccccc1C(=O)O[C@@H]1[C@@H](OP(=O)(O)O)[C@H](O)[C@@H](COC(=O)c2ccc[nH]2)O[C@H]1n1ccc2ccccc21` [iglu#58] was 0.0001802; that for `Nc1ccccc1C(=O)O[C@@H]1O[C@H](COC(=O)c2cccnc2)[C@@H](O)[C@H](OP(=O)(O)O)[C@H]1OC(=O)c1cccnc1` [angl#30] was 0.001616.

With `C/C=C(\C)C(=O)O[C@H]1[C@H](Oc2ccc(CCN)cc2)O[C@H](COC(=O)c2ccc[nH]2)[C@@H](O)[C@@H]1OP(=O)(O)O` [tyglu#20], the “Cel-cest-1.2 fold over WT (N2)” value was found to be 0.0003518. As to `O=C(O[C@@H]1[C@@H](OP(=O)(O)O)[C@H](O)[C@@H](CO)O[C@H]1n1ccc2ccccc21)c1ccc[nH]1` [iglu#101, (2R,3R,4S,5R,6R)-5-hydroxy-6-(hydroxymethyl)-2-(1H-indol-1-yl)-4-(phosphonooxy)tetrahydro-2H-pyran-3-yl 1H-pyrrole-2-carboxylate], the “Cel-cest-1.2 fold over WT (N2)” value amounted to 0.0002768. The value for `Nc1ccccc1C(=O)O[C@@H]1[C@@H](CP(=O)(O)O)[C@H](O)[C@@H](COC(=O)Cc2ccc(O)cc2)O[C@H]1n1ccc2ccccc21` [iglu#86] was 0.01799; that for `C/C=C(\C)C(=O)OC[C@H]1O[C@@H](OC(=O)c2ccc[nH]2)[C@H](OC(=O)c2ccccc2)[C@@H](OP(=O)(O)O)[C@@H]1O` [pyglu#4] was 0.007137; that for `NCC(O)c1ccc(C[C@@H]2O[C@H](COC(=O)c3ccccc3N)[C@@H](O)[C@H](OP(=O)(O)O)[C@H]2OC(=O)c2cccnc2)cc1` (stereo partly shown) [oglu#15] was 0.0007264.

In the case of `O=C(Cc1ccccc1)O[C@@H]1[C@@H](OP(=O)(O)O)[C@H](O)[C@@H](COC(=O)c2ccccc2)O[C@H]1n1ccc2ccccc21` [iglu#64], the “Cel-cest-1.2 fold over WT (N2)” value is recorded as 0.0004248.
